Experimental data as given in paper PMC7139850.
These are yes or no findings as the source states them, for the method shown. Binding seen in cells or lysates may run through a third protein. Some results given as binding are weak or reduced against the parent protein; the word gives no strength.

Sequences of proteins named here, by UniProt entry; tags and fusion partners are left off. Residues count along the entry.
UniProt P04785, residues 20-509: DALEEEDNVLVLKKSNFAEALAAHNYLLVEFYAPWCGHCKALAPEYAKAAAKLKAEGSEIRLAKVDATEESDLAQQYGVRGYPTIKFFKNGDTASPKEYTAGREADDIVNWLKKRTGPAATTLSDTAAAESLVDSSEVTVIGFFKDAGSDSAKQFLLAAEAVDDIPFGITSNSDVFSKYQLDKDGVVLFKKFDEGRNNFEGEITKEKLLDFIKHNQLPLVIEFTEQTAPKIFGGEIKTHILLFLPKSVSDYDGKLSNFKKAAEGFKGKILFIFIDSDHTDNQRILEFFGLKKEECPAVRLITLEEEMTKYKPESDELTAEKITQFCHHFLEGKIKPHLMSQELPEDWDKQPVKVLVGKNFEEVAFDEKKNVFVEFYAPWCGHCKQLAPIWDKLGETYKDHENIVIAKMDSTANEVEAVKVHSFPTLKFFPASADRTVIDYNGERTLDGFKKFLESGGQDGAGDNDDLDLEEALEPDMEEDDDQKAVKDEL

Target: NR2A subunit of the N-methyl-D-aspartate receptor (NMDAR) (rat (endogenous in hippocampus)) (UniProt Q00959)
Test: co-IP; rat hippocampal tissue lysed in RIPA buffer with protease and phosphatase inhibitor cocktails and 1 mM sodium orthovanadate; equal amounts of protein precipitated with the primary antibody and protein G sepharose at 4 °C overnight; Western blot; animals: saline vs PILO acute seizure, control vs epileptic rats, control siRNA vs PDI siRNA in epileptic rats

## Protein disulfide isomerase (PDI) (from UniProt P04785 20-509) (enzyme)
  binding: binds
